Measurements published in patent US20130109629A1.
These are yes or no findings as the source states them, for the method shown. Some results given as binding are weak or reduced against the parent protein; the word gives no strength.

The chains behind the UniProt entries cited, without tags or fusion partners. Where a name states a change or a piece, a line headed by the entry shows the natural chain unless it says otherwise.
UniProt P78556: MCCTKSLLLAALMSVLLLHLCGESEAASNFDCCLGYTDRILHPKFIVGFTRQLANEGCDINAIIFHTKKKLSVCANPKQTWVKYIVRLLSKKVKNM

Key:
[1] = target: T1, soluble CCR6 (sCCR6) in human serum (human) (UniProt P51684); assay: blocking of sCCR6 detection by ELISA with CCL20 (100 ng/ml, 1 h), three sera of healthy volunteers
T1 sequence (looked up): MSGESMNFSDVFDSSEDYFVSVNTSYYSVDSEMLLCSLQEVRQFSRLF

[2] = target: T1, soluble CCR6 (sCCR6) in human serum (human); assay: sera preincubated with 100 ng/ml CCL20, then sandwich CCR6 ELISA
[3] = target: T1, soluble CCR6 (sCCR6) in human serum (human); assay: blocking of sCCR6 detection in sandwich CCR6 ELISA
[4] = target: T1, soluble CCR6 (sCCR6) in human serum (human); assay: sera preincubated with 100 ng/ml CCL18, then sandwich CCR6 ELISA
[5] = target: T1, soluble CCR6 (sCCR6) in human serum (human); assay: blocking of sCCR6 detection by ELISA with CCL18 (100 ng/ml, 1 h), three sera of healthy volunteers

Measured: binding

CCL20 (from UniProt P78556 27-96) (ligand)
binds: [1] | [2] | [3]

B1: human recombinant CCL18 (ligand)
chain: AQVGTNKELCCLVYTSWQIPQKFIVDYSETSPQCPKPGVILLTKRGRQICADPNKKWVQKYISDLKLNA
binds: [4] | [3] | [5]
